Experimental data as given in the supplement of paper PMC11006884.
The entries are a selection whose mix differs from that of the whole data set.

By UniProt entry, the sequences of proteins in these tests, tags left out. Where a name states a change or a piece, a line headed by the entry shows the natural chain unless it says otherwise.
UniProt Q15048: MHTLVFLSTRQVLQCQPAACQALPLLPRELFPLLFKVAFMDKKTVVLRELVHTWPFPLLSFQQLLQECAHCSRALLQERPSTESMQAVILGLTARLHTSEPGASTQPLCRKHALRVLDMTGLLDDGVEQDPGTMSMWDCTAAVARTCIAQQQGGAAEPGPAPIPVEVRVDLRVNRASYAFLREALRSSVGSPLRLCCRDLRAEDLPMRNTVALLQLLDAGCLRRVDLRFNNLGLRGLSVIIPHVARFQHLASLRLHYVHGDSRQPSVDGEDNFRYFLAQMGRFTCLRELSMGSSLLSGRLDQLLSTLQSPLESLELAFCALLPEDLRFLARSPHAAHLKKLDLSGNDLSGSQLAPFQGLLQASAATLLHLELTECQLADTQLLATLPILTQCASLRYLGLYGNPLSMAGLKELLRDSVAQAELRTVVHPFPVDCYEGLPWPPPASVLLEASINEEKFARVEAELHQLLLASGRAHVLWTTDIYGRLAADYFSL
UniProt Q15813: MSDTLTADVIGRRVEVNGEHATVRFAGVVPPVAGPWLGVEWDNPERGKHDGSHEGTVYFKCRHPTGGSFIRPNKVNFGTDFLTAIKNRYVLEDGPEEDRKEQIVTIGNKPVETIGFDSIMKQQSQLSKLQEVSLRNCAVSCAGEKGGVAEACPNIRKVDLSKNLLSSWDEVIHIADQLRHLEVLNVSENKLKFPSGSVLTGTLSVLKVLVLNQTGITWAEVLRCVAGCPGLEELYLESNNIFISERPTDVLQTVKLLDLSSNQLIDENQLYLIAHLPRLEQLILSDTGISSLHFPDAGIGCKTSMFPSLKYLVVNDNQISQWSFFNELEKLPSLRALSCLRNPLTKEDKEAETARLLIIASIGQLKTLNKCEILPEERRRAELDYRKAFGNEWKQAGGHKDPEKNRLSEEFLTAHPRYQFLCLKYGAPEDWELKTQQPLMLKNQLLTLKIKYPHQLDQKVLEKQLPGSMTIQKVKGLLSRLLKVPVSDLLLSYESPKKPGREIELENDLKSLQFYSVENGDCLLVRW
UniProt Q15398: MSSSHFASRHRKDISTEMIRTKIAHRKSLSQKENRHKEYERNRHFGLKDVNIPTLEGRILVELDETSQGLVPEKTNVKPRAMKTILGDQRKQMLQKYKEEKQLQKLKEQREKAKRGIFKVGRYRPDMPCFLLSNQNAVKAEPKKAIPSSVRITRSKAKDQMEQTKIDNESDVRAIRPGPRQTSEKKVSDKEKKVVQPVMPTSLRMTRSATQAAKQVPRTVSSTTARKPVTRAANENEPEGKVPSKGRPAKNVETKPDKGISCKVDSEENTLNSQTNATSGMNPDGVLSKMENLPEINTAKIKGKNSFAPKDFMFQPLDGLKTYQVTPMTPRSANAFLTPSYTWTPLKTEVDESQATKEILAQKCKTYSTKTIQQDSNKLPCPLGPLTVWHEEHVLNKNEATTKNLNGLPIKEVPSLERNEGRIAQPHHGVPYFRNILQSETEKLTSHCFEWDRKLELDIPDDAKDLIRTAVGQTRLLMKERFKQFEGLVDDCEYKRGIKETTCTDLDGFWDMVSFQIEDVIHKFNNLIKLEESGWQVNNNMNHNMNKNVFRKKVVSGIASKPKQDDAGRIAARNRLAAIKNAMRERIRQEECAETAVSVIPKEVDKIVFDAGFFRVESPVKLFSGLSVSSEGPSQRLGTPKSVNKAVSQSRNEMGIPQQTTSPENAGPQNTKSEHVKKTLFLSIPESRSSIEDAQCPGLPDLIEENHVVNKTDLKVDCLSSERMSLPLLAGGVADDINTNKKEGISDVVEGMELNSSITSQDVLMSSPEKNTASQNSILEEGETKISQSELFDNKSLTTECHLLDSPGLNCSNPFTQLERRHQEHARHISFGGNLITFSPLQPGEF
UniProt Q15365, whole entry, looked up: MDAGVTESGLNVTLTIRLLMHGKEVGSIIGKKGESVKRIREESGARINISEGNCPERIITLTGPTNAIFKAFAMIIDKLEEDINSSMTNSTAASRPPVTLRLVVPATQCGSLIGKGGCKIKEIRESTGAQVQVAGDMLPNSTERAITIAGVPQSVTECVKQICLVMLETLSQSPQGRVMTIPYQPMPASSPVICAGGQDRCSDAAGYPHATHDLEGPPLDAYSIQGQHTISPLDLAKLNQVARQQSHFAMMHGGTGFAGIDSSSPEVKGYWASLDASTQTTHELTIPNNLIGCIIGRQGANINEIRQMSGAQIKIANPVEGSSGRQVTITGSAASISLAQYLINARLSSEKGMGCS
UniProt Q15366, whole entry, looked up: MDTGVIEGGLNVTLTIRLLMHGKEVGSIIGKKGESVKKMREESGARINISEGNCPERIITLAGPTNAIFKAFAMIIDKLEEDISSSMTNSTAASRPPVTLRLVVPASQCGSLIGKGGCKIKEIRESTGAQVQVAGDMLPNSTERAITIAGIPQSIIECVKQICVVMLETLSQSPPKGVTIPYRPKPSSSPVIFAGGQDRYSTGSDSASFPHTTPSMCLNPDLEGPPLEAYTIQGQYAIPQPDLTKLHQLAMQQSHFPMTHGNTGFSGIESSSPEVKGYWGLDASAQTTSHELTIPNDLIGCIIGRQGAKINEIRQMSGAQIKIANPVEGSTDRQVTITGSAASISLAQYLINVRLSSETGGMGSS
UniProt Q16576, whole entry, looked up: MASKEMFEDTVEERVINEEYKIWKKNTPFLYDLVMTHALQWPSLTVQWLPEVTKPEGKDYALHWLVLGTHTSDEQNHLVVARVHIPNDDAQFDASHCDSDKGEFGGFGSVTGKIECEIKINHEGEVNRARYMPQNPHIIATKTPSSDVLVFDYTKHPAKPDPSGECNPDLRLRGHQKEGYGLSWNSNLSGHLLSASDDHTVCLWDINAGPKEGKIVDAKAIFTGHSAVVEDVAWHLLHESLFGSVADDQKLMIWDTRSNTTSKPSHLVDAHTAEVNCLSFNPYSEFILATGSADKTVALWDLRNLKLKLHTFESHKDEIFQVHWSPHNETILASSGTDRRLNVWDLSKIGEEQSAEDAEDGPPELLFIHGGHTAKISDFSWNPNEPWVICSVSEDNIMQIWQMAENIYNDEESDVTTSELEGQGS
UniProt Q32MZ4: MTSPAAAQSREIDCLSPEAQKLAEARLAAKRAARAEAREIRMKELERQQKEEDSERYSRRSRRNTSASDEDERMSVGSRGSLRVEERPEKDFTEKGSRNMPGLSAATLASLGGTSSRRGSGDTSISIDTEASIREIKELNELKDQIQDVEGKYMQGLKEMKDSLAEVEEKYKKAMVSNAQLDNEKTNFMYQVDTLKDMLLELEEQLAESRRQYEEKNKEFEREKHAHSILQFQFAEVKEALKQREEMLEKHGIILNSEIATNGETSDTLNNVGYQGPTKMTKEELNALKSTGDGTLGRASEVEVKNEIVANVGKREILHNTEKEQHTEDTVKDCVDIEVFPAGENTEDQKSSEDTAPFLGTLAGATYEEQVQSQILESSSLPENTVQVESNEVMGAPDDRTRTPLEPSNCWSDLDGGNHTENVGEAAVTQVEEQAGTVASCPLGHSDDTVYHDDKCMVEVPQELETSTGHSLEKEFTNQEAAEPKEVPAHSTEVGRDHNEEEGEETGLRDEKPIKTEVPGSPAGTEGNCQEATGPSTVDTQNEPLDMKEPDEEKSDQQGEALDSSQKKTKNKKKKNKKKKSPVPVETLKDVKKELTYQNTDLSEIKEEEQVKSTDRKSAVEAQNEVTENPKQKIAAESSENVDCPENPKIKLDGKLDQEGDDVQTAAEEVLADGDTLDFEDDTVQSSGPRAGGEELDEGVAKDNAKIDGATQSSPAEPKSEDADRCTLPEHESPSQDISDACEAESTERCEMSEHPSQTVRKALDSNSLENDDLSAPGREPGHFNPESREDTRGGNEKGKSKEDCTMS
UniProt Q2M3G4: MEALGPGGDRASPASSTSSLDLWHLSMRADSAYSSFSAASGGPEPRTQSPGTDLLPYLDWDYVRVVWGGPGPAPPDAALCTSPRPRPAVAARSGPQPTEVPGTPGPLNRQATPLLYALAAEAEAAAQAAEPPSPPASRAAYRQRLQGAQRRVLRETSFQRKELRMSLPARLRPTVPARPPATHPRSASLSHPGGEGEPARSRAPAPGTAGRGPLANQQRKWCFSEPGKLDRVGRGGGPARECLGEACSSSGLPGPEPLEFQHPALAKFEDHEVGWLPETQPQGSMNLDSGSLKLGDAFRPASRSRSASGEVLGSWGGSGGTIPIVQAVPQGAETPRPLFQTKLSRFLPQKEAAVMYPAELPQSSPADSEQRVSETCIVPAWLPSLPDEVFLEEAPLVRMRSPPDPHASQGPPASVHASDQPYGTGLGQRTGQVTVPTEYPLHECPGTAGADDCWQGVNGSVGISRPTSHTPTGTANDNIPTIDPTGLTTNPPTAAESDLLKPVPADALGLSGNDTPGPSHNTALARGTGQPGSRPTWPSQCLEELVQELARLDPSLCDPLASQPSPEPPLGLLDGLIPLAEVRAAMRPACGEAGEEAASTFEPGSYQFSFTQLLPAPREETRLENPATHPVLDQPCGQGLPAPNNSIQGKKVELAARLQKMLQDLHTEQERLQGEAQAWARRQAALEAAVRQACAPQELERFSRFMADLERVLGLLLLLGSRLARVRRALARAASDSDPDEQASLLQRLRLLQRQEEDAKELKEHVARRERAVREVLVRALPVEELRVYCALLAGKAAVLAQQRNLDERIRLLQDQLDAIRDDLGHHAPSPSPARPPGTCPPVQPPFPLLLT
UniProt Q15654: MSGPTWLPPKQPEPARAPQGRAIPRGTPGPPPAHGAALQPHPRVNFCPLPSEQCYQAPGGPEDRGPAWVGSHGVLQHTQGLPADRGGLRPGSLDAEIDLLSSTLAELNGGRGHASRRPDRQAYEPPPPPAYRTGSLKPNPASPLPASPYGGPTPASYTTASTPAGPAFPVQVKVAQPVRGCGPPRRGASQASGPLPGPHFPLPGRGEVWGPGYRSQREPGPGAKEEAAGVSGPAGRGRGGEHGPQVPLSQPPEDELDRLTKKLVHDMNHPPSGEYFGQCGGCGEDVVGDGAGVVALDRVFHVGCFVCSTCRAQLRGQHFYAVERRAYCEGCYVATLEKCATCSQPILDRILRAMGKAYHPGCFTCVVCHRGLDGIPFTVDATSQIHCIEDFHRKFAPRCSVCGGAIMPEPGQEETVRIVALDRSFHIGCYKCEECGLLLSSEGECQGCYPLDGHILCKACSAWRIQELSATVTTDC
UniProt Q15120, whole entry, looked up: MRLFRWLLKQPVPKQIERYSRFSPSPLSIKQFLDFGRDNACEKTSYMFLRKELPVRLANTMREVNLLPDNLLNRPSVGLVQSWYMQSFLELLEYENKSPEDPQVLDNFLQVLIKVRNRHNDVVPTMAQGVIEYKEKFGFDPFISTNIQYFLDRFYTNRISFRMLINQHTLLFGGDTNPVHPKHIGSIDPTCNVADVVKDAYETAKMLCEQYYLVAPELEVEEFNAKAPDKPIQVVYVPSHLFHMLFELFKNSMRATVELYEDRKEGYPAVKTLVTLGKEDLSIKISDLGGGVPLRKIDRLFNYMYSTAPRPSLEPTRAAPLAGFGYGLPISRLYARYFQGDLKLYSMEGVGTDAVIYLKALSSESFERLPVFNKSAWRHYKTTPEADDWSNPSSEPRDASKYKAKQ
UniProt Q15532, whole entry: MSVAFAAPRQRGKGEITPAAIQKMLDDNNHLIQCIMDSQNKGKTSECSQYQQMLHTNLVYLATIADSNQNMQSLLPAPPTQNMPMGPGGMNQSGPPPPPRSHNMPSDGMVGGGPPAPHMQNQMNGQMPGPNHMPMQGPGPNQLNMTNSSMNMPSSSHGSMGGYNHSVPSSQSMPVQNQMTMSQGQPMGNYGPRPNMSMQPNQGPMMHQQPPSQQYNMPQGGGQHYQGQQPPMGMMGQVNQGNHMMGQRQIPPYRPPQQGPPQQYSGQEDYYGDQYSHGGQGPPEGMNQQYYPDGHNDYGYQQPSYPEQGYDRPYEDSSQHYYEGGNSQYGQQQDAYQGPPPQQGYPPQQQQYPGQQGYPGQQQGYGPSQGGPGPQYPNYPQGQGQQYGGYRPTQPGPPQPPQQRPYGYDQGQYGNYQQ
UniProt Q16718, whole entry: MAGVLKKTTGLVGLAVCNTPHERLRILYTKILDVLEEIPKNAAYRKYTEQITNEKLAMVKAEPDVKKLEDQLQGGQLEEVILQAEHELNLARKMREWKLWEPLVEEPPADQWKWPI
UniProt Q15084: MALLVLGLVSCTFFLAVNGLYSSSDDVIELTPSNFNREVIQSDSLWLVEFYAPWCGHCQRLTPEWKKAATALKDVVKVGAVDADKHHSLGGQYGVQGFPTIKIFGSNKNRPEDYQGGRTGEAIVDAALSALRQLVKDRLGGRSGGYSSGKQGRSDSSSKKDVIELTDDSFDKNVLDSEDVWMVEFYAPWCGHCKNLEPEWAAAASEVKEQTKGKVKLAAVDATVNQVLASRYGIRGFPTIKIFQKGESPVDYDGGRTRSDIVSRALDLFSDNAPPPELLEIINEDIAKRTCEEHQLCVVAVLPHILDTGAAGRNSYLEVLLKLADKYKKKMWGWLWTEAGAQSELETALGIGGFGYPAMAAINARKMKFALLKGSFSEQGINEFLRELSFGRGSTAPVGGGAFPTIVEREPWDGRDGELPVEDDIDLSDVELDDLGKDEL

Compound: COC(=O)C#Cc1ccccc1 [methyl 3-phenylpropiolate]
Assay: log2 ratio of iodoacetamide-alkyne labeling of the cysteine site, DMSO over compound (competition); higher = stronger covalent engagement of the cysteine by the compound, active = 1 or more
Conditions: 500 µM; treatment time 1 h; system: HEK293T cell lysate
Summary of the method: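 HEK293T lysate (2 mg/mL) was incubated with electrophile (500 µM) or vehicle for 1 h at ambient temperature and then with iodoacetamide alkyne for 1 h. Labelled proteins were clicked to sCIP-TMT reagents, pooled, digested, enriched on streptavidin and measured by Orbitrap Eclipse LC-MS/MS with FAIMS, with FragPipe quantification. The per-cysteine log2 competition ratio is mean control-channel reporter intensity over mean compound-channel reporter intensity. Across three replicates with duplicate channels, cysteines quantified in only one replicate were excluded.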

Target	log2 ratio of iodoacetamide-alkyne labeling
LRRC14 C15 (UniProt Q15048)	inactive: 0.615
TBCE C301 (UniProt Q15813)	inactive: 0.581
PDS5A C589 (UniProt Q29RF7)	inactive: 0.582
INF2 C971 (UniProt Q27J81)	inactive: 0.608
NCOA1 C831 (UniProt Q15788)	inactive: 0.4
DLGAP5 C448 (UniProt Q15398)	inactive: 0.023
FAM98B C295 (UniProt Q52LJ0)	inactive: 0.995
PCM1 C957 (UniProt Q15154)	active: 2.43
SEC23B C180 (UniProt Q15437)	inactive: 0.377
PDCD4 C227 (UniProt Q53EL6)	inactive: 0.105
UniProt Q15042_C335	inactive: 0.153
FLYWCH1 C173 (UniProt Q4VC44)	inactive: -0.0462
UniProt Q15365_C201	inactive: 0.616
PCBP2 C301 (UniProt Q15366)	inactive: 0.396
CDC37 C308 (UniProt Q16543)	inactive: 0.146
RBBP7 C116 (UniProt Q16576)	inactive: -0.0161
SEC23B C767 (UniProt Q15437)	inactive: 0.00601
RASA2 C314 (UniProt Q15283)	inactive: -0.00025
MAP7D1 C328 (UniProt Q3KQU3)	inactive: 0.54

Laid out differently: results already given.
Target,log2 ratio of iodoacetamide-alkyne labeling
CDC37 C308 (UniProt Q16543),inactive: 0.146
RBBP7 C116 (UniProt Q16576),inactive: -0.0161

Further records follow:

Target	log2 ratio of iodoacetamide-alkyne labeling
UniProt Q15046_C496	inactive: -0.0363
LRRFIP1 C805 (UniProt Q32MZ4)	inactive: 0.434
MAP7D1 C251 (UniProt Q3KQU3)	inactive: 0.401
SF3B3 C1054 (UniProt Q15393)	inactive: 0.292
TWISTNB C5 (UniProt Q3B726)	inactive: 0.889
SEC23A C432 (UniProt Q15436)	inactive: 0.163
SHROOM1 C376 (UniProt Q2M3G4)	inactive: 0.115
PDS5A C1093 (UniProt Q29RF7)	inactive: 0.237
LONRF2 C166 (UniProt Q1L5Z9)	inactive: 0.0566
CCDC6 C27 (UniProt Q16204)	inactive: 0.255
VPS26B C334 (UniProt Q4G0F5)	inactive: 0.1
EFTUD2 C842 (UniProt Q15029)	inactive: 0.204
MED1 C135 (UniProt Q15648)	inactive: 0.499
TRIP6 C402 (UniProt Q15654)	inactive: 0.245
PDK3 C41 (UniProt Q15120)	inactive: 0.957
SS18 C34 (UniProt Q15532)	inactive: 0.159
NDUFA5 C17 (UniProt Q16718)	inactive: 0.144
PDIA6 C55 (UniProt Q15084)	inactive: -2.5e-05
